# Measurements published in patent US20060210536A1 (published 2006).
# Protein sequences, listed by entry. Tags and fused reporters are not part of them.
# UniProt P52630: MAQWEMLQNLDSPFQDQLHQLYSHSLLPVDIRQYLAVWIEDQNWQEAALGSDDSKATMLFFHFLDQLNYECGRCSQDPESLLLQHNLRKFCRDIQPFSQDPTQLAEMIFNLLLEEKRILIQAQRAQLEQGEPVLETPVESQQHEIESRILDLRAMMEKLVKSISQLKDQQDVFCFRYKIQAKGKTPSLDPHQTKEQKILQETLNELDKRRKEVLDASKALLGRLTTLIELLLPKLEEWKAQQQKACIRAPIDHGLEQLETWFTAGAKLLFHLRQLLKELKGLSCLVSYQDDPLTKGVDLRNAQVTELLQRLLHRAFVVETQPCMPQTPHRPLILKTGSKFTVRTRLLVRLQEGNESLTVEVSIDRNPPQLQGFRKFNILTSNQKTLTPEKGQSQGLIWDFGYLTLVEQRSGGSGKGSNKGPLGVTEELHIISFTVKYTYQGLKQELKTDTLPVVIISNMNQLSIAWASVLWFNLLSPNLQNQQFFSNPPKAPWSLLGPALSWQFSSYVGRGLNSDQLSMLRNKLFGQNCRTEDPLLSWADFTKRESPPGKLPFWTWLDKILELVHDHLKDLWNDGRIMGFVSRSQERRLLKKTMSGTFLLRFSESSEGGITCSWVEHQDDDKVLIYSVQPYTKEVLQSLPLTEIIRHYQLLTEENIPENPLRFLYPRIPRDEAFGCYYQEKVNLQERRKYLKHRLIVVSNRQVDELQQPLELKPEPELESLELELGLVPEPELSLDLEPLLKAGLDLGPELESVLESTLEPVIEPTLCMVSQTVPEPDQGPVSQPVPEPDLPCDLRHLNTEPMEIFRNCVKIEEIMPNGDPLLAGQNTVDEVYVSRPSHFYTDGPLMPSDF
# UniProt P11207: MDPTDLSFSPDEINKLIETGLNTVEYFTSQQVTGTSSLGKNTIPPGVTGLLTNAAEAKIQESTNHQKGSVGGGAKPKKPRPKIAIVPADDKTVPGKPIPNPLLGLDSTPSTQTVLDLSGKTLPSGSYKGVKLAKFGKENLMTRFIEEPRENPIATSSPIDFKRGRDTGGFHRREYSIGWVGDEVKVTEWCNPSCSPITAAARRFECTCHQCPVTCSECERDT
# No constants are given. Whether binding was seen depends on the method and setting. Some results given as binding are weak or reduced against the parent protein; the word gives no strength.
# Target: STAT2 (UniProt P52630)
# Assay: FLAG affinity purification from transfected cell lysate, immunoblot with STAT2 antiserum
substance,measurement,value
FLAG-tagged SV5 V protein (from UniProt P11207 1-222),binding,binds
